Results as given in PMC9414295.
These are yes or no findings as the source states them, for the method shown. In cells and extracts the contact can be indirect. Some binding calls cover weakened binding; strength is not graded here.

The chains behind the UniProt entries cited, without tags or fusion partners.
UniProt P03129: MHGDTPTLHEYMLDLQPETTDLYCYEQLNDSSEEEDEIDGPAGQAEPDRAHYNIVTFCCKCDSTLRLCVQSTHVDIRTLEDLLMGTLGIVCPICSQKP

Molecular target: FLAG-HA-tagged HPV-16 E7 (human papillomavirus type 16) (UniProt P03129)
Experiment: co-IP

B1: retinoblastoma tumor suppressor protein pRB (protein, UniProt P06400 1-928)
chain: MPPKTPRKTAATAAAAAAEPPAPPPPPPPEEDPEQDSGPEDLPLVRLEFEETEEPDFTALCQKLKIPDHVRERAWLTWEKVSSVDGVLGGYIQKKKELWGICIFIAAVDLDEMSFTFTELQKNIEISVHKFFNLLKEIDTSTKVDNAMSRLLKKYDVLFALFSKLERTCELIYLTQPSSSISTEINSALVLKVSWITFLLAKGEVLQMEDDLVISFQLMLCVLDYFIKLSPPMLLKEPYKTAVIPINGSPRTPRRGQNRSARIAKQLENDTRIIEVLCKEHECNIDEVKNVYFKNFIPFMNSLGLVTSNGLPEVENLSKRYEEIYLKNKDLDARLFLDHDKTLQTDSIDSFETQRTPRKSNLDEEVNVIPPHTPVRTVMNTIQQLMMILNSASDQPSENLISYFNNCTVNPKESILKRVKDIGYIFKEKFAKAVGQGCVEIGSQRYKLGVRLYYRVMESMLKSEEERLSIQNFSKLLNDNIFHMSLLACALEVVMATYSRSTSQNLDSGTDLSFPWILNVLNLKAFDFYKVIESFIKAEGNLTREMIKHLERCEHRIMESLAWLSDSPLFDLIKQSKDREGPTDHLESACPLNLPLQNNHTAADMYLSPVRSPKKKGSTTRVNSTANAETQATSAFQTQKPLKSTSLSLFYKKVYRLAYLRLNTLCERLLSEHPELEHIIWTLFQHTLQNEYELMRDRHLDQIMMCSMYGICKVKNIDLKFKIIVTAYKDLPHAVQETFKRVLIKEEEYDSIIVFYNSVFMQRLKTNILQYASTRPPTLSPIPHIPRSPYKFPSSPLRIPGGNIYISPLKSPYKISEGLPTPTKMTPRSRILVSIGESFGTSEKFQKINQMVCNSDRVLKRSAEGSNPPKPLKKLRFDIEGSDEADGSKHLPGESKFQQKLAEMTSTRTRMQKQKMNDSMDTSNKEEK
- binding: binds
